Measurements published in the supplement of paper PMC10849652.
The list shows a part of the results.

The chains behind the UniProt entries cited, without tags or fusion partners. Where a name states a change or a piece, a line headed by the entry shows the natural chain unless it says otherwise.
UniProt P53778: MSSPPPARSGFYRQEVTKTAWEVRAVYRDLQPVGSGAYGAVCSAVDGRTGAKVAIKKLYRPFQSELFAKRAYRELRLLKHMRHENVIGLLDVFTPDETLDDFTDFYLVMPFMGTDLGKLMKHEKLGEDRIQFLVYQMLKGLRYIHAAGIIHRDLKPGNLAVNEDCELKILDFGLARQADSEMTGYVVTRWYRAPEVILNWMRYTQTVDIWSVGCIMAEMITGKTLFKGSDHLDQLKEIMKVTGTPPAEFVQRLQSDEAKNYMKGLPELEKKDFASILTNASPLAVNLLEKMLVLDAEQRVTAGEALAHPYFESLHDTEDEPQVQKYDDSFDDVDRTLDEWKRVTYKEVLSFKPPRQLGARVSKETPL
UniProt Q99759: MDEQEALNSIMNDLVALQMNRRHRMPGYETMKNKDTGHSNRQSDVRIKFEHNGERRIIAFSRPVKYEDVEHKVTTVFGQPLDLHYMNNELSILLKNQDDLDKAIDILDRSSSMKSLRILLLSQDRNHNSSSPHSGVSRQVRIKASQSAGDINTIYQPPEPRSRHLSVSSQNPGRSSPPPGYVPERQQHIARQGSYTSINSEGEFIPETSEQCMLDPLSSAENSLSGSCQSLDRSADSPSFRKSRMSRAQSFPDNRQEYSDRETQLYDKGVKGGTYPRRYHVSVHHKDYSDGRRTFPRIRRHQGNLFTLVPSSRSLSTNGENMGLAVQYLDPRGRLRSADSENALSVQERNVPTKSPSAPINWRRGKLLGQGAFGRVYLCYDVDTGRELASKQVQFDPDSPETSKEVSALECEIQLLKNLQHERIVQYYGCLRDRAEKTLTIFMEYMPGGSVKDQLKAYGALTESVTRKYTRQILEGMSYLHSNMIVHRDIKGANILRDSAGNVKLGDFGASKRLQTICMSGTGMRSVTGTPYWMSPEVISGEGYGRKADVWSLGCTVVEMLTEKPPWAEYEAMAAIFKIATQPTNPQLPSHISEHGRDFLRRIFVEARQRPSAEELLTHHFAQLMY
UniProt Q86UD3: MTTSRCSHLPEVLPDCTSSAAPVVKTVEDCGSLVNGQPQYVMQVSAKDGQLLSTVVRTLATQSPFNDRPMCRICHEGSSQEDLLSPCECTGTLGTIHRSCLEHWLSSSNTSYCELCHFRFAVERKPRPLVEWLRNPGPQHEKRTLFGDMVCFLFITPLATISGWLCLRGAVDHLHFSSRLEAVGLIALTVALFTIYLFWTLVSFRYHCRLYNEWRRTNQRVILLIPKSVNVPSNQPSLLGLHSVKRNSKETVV
UniProt P43360, whole entry, looked up: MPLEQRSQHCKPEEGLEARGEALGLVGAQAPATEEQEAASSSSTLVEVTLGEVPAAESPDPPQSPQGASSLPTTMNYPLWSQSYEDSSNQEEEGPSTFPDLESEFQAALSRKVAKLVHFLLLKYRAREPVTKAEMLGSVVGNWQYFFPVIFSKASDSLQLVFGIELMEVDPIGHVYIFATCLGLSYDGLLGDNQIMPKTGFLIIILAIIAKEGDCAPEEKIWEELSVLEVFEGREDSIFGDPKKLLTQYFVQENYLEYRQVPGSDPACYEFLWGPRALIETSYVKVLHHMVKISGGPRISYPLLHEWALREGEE
UniProt P07948: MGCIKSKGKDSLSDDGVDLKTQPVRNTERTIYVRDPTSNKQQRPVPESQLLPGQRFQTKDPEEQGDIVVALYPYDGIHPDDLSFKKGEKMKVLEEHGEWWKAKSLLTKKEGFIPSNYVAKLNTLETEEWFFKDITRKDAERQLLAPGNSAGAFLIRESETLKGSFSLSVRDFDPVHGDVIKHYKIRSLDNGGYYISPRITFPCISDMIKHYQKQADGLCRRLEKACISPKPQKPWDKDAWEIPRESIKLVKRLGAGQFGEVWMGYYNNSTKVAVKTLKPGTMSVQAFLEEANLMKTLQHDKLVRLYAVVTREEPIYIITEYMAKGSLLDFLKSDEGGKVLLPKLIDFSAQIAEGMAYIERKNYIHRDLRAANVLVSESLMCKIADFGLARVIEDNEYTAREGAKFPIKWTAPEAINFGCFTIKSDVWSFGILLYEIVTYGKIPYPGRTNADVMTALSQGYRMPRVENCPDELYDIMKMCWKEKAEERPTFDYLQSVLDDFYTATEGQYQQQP
UniProt Q13233: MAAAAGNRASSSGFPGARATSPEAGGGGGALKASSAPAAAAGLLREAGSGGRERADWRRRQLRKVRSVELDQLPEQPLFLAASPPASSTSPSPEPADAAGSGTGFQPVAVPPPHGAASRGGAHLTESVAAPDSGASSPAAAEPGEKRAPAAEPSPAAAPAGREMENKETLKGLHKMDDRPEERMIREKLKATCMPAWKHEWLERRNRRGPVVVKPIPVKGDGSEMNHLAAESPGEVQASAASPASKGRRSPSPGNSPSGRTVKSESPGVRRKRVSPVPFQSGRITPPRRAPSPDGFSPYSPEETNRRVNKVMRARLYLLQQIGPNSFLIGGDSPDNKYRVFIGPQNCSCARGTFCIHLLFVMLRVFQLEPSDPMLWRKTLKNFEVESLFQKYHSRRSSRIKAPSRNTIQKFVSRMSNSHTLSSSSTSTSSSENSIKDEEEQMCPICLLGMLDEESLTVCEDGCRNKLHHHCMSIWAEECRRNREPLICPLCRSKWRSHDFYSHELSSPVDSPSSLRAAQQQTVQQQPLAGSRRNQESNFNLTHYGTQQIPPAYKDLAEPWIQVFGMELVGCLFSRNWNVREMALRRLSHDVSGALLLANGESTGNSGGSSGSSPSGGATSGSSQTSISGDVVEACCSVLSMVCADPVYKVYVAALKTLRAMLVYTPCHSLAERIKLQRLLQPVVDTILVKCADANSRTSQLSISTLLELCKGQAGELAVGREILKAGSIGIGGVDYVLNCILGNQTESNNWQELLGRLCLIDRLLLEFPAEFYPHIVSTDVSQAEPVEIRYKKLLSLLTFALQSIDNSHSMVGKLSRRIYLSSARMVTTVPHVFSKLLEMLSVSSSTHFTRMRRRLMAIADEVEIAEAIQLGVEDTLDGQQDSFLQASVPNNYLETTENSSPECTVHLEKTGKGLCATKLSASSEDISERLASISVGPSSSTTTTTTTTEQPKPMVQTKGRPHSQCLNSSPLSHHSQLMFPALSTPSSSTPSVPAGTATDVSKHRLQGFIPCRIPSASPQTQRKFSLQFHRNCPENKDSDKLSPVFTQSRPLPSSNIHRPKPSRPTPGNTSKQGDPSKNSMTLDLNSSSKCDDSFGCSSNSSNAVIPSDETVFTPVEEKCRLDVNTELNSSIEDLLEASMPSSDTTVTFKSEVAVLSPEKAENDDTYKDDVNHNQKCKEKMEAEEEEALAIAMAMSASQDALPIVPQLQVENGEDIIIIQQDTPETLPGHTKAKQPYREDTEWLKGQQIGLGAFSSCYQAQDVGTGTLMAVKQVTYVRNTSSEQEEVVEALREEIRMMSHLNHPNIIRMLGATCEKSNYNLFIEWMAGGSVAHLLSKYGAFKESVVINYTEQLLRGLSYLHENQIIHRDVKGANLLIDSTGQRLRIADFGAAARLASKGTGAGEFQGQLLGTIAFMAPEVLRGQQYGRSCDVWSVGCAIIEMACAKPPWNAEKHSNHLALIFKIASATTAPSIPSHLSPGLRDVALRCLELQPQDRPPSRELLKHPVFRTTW
UniProt Q9Y2U5: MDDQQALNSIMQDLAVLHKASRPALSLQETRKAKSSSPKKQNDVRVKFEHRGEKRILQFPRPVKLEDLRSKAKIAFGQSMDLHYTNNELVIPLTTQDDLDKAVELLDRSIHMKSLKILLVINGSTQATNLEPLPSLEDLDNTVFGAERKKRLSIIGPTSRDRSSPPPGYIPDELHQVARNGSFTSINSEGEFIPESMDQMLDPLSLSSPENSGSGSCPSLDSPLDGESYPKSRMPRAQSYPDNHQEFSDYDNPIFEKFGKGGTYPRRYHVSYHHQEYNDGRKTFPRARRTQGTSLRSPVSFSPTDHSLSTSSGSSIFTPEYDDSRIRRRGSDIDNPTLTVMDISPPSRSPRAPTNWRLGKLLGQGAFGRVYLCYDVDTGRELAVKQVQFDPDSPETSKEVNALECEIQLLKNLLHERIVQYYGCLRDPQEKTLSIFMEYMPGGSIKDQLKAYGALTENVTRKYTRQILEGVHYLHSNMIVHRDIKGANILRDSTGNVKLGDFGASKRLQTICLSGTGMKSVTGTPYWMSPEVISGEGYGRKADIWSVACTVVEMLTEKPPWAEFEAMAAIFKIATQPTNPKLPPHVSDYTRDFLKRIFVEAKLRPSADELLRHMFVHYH
UniProt P43357, whole entry, looked up: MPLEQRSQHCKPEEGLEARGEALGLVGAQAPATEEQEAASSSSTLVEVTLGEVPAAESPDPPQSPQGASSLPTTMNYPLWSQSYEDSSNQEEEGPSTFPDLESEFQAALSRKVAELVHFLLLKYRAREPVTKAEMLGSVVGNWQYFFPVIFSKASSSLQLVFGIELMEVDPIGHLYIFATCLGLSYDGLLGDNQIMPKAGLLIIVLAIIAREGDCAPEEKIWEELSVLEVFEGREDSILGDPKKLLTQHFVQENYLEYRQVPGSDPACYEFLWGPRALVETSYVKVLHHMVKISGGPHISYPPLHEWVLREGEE
UniProt P43365, whole entry, looked up: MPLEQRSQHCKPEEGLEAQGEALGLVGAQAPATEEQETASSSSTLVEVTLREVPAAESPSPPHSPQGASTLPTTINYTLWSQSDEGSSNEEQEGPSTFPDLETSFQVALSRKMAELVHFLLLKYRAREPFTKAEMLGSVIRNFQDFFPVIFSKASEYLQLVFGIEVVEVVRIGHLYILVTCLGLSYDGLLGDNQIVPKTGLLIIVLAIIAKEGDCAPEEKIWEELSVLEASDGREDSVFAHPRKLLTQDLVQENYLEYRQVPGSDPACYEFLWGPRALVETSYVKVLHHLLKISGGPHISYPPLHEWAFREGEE
UniProt Q8WV07: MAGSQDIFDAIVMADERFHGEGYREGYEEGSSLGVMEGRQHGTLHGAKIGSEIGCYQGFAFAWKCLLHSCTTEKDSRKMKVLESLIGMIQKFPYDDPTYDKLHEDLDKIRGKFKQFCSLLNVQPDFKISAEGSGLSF
UniProt O43325: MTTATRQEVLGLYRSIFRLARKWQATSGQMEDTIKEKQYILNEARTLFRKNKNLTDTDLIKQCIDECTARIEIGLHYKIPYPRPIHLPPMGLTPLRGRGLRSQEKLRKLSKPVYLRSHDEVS
UniProt Q8TD08: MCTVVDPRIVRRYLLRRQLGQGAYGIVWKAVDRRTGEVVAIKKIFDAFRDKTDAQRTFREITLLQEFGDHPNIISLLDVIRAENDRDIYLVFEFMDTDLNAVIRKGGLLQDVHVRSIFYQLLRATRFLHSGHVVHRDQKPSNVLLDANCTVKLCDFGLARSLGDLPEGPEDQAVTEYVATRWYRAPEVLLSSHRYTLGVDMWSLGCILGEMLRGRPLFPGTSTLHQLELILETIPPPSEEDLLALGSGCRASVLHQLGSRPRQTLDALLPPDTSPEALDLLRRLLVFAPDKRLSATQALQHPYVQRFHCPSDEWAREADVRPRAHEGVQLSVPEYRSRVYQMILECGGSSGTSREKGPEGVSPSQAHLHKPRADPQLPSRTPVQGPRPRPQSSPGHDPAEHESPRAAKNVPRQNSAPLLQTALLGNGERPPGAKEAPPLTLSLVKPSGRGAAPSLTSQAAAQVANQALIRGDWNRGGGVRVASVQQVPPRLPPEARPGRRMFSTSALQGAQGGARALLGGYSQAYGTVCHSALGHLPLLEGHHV
UniProt Q8IVH8: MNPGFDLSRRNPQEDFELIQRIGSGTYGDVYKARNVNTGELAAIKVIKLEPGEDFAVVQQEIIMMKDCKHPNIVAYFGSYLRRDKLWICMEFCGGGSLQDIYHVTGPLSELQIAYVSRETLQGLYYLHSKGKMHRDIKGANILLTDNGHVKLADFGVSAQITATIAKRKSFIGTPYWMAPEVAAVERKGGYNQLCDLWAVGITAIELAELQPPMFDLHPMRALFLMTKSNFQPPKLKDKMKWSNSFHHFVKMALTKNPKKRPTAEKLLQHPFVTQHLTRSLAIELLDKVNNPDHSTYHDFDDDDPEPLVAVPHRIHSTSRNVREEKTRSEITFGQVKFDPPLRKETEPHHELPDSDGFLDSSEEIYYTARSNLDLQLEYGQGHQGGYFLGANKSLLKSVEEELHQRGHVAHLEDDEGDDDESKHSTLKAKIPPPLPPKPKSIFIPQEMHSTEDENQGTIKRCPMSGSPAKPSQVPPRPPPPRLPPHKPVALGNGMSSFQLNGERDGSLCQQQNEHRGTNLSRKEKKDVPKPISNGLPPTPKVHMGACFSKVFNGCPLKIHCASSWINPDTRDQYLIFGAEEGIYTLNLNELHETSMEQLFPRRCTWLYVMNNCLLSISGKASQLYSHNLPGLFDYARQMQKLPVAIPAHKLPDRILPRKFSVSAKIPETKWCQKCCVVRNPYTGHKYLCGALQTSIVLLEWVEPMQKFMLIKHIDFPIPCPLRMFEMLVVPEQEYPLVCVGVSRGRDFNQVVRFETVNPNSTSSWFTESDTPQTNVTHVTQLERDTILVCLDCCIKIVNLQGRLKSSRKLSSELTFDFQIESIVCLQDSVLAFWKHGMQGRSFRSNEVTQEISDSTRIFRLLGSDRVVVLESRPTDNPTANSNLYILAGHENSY

Compound: Cc1cc(Nc2cc(N3CCN(C)CC3)nc(Sc3ccc(NC(=O)C4CC4)cc3)n2)n[nH]1 [tozasertib]
Assay: log2 fold change, soluble protein after heating vs DMSO (PISA); higher = thermal stabilisation; K562 lysate, 10 uM; active = over 0.2 and 3.5 SD of the protein, either way, in both replicates (recomputed)
Procedure, shortened: (§1)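 Dounce homogenisation of K562 pellets in PBS pH 7.4 with 1 mM MgCl2 produced a crude extract, used at 1 mg/mL protein. Exposure to 10 μM compound lasted 30 min, and aliquots were then heated for 3 min across 48°C-58°C, pooled and brought to 0.5% NP-40 at 4°C. The supernatant after 21,000xg for 90 min was quantified by TMTpro 16plex LC-MS/MS with channel sums equalised. Duplicate values are given as log-two fold change in thermal stability relative to solvent controls.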

Question: How did the log2 fold change turn out when MAPK12 (UniProt P53778) was run?
Answer: inactive: 0.248

Question: How did the log2 fold change turn out when MAP3K3 isoform 2 (UniProt Q99759) was run?
Answer: inactive: 0.028

Question: Which log2 fold change does the source give for MARCHF3 (UniProt Q86UD3) here?
Answer: inactive: 0.013

Question: For MARF1 (UniProt Q9Y4F3), which log2 fold change is on record?
Answer: inactive: -0.032

Question: How did the log2 fold change turn out when MAML1 (UniProt Q92585) was run?
Answer: inactive: -0.017

Question: How did the log2 fold change turn out when MACF1, A0A0A6YYJ5 was run?
Answer: inactive: -0.108

Question: For MAGEA6 (UniProt P43360), which log2 fold change is on record?
Answer: inactive: 0.068

Question: How did the log2 fold change turn out when MAP3K6 (UniProt O95382) was run?
Answer: inactive: -0.061

Question: How did the log2 fold change turn out when LYN isoform 2 (UniProt P07948) was run?
Answer: inactive: 0.126

Question: MAP3K1 (UniProt Q13233) was tested. Which log2 fold change did it give?
Answer: inactive: -0.01

Question: Which log2 fold change does the source give for MAP3K2 (UniProt Q9Y2U5) here?
Answer: inactive: -0.138

Question: MAGEA3 (UniProt P43357) was tested. Which log2 fold change did it give?
Answer: inactive: -0.231

Question: Which log2 fold change does the source give for MAPKAP1 (UniProt Q9BPZ7) here?
Answer: inactive: 0.113

Question: For LTBP1 isoform 4 (UniProt Q14766), which log2 fold change is on record?
Answer: inactive: -0.078

Question: Which log2 fold change does the source give for MAGEA12 (UniProt P43365) here?
Answer: inactive: 0.036

Question: Which log2 fold change does the source give for LTO1 (UniProt Q8WV07) here?
Answer: inactive: 0.138

Question: For MAGEA2 (UniProt P43356), which log2 fold change is on record?
Answer: inactive: 0.134

Compound: Cc1ccc(-n2nc(C(C)(C)C)cc2NC(=O)Nc2ccc(OCCN3CCOCC3)c3ccccc23)cc1 [doramapimod]
Assay: as above
Procedure, shortened: as §1

Question: For MAP3K3 isoform 2 (UniProt Q99759), which log2 fold change is on record?
Answer: inactive: -0.077

Question: Which log2 fold change does the source give for MARF1 (UniProt Q9Y4F3) here?
Answer: inactive: -0.004

Question: With MAML1 (UniProt Q92585) as the target, how does the log2 fold change read?
Answer: inactive: -0.138

Question: Which log2 fold change does the source give for MACF1, A0A0A6YYJ5 here?
Answer: inactive: -0.022

Question: Which log2 fold change does the source give for MAGEA6 (UniProt P43360) here?
Answer: inactive: -0.068

Question: LYN isoform 2 (UniProt P07948) was tested. Which log2 fold change did it give?
Answer: inactive: -0.076

Question: LYRM1 (UniProt O43325) was tested. Which log2 fold change did it give?
Answer: inactive: -0.02

Question: MAP3K1 (UniProt Q13233) was tested. Which log2 fold change did it give?
Answer: inactive: 0.032

Question: For LYL1 (UniProt P12980), which log2 fold change is on record?
Answer: inactive: -0.104

Question: LTBP4 isoform 2 (UniProt Q8N2S1) was tested. Which log2 fold change did it give?
Answer: inactive: 0.079

Question: How did the log2 fold change turn out when MAP3K2 (UniProt Q9Y2U5) was run?
Answer: inactive: -0.033

Question: With MAPK15 (UniProt Q8TD08) as the target, how does the log2 fold change read?
Answer: inactive: 0.034

Question: MAGEA3 (UniProt P43357) was tested. Which log2 fold change did it give?
Answer: inactive: -0.016

Question: For MAP3K4 isoform 2 (UniProt Q9Y6R4), which log2 fold change is on record?
Answer: inactive: -0.007

Question: How did the log2 fold change turn out when MAPKAP1 (UniProt Q9BPZ7) was run?
Answer: inactive: -0.029

Question: With MAP4K3 (UniProt Q8IVH8) as the target, how does the log2 fold change read?
Answer: inactive: -0.041

Question: MAGEA12 (UniProt P43365) was tested. Which log2 fold change did it give?
Answer: inactive: 0.046

Question: With LTO1 (UniProt Q8WV07) as the target, how does the log2 fold change read?
Answer: inactive: 0.014
